Reference: paper PMC11947619, “Molecular mechanism of Mad2 conformational conversion promoted by the Mad2‐interaction motif of Cdc20” (Protein Science : A Publication of the Protein Society, 2025)
Results are given in words; binding and its absence hold for the method and conditions named.

By UniProt entry, the sequences of proteins in these tests, tags left out. Where a name states a change or a piece, a line headed by the entry shows the natural chain unless it says otherwise.
UniProt Q13257: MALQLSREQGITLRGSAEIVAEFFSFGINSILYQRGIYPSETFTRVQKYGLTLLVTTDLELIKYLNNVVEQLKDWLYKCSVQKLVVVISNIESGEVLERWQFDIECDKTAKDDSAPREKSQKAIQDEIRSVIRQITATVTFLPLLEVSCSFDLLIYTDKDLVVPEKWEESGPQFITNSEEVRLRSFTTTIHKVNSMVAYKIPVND

Molecular target: T1, Mad2^R133A (human, UniProt Q13257 1-205, R133A)
T1 construct: Mad2, human, full-length, R133A; Tag is followed by a TEV site; 15N-labelled for NMR; Starts in the open state; also called O-Mad2^R133A; C-Mad2^R133A; source: E. coli BL21 Star (DE3) with pRARE, purified
Assay: time-resolved NMR (series of 2D 1H,15N HSQC spectra); 100 μM 15N Mad2 variant, MIM peptide at two-fold molar excess, 25°C, 20 mM HEPES pH 7.0, 100 mM NaCl, 1 mM TCEP, 5% D2O; Trp75 and Trp167 indole NH resonances as reporters of the ligand-bound closed state; 12 min per spectrum, up to 24 h; both purified

B1: Cdc20^MIM-138-152 (peptide)
peptide: QNAPEGYQNRLKVLY
**Q.** With B1 as the binder, how does the binding read?
**A.** no binding (tested: after two hours)
